## Library screening results

Measurements from “University of Dundee, Small-Polar-MMV Screening Library” (2021), ChEMBL document CHEMBL3988442.

Values are the deposited “Percent Effect”, in %.
How 0% and 100% were set is not recorded. Most values in the screen are low, and negative values occur.
This is an unselected part of the compounds tested.
A dash means the value is not listed here; it may have been measured.

Mtb growth Cornell: 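Whole-cell assay for inhibitors of Mycobacterium tuberculosis growth, labelled Cornell in the record; the read-out is not stated. The concentration is filed as 10 mM, unlikely as a test dose, so the dose is not known. Higher means stronger inhibition (inferred from two other growth screens of the library). About 53,000 compounds were tested under these conditions; 1.7% (about 900) showed 50% or more at least once.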
Mtb heat-shock: 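Assay on Mycobacterium tuberculosis, filed only as a heat shock assay from Cornell; the read-out is not stated. The concentration is filed as 10 mM, unlikely as a test dose, so the dose is not known. Direction is inferred from retests: higher values go with stronger inhibition. Size under these conditions: about 69,000 compounds, about 930 of them at 50% or above in at least one test.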

| # | compound | Mtb growth Cornell | Mtb heat-shock |
|---|---|---|---|
| 1 | `CC(=O)N1CCCCC1c1nnc2n1CCNC2` (stereo not shown) | - | -29.88 |
| 2 | `Cn1cccc1C(O)CNC(=O)c1ccc2nsnc2c1` (stereo not shown) | 20.08 | 5.558 |
| 3 | `Cc1nn(C)c(N2CCCN(C)CC2)c1CNC(=O)CC1CCCC1` | 23.58 | 7.174 |
| 4 | `COCc1nc(C2CC2)nn1-c1cc(Cl)ccc1OC` | 8.894 | -0.9347 |
| 5 | `Cc1csc(NC(=O)c2ccc(NC(=O)N3CCOCC3)cc2)n1` | 44.64 | 9.395 |
| 6 | `CC(C)c1nsc(N2CCCOCC2)n1` | -20.88 | -13.7 |
| 7 | `COc1cc(C2(C(=O)NCC(=O)NC3CC3)CC2)ccc1C` | -57.71 | 14.48 |
| 8 | `CC(C)(C)n1ncc2c1NC(=O)CC2c1ccc(OCC(N)=O)cc1` (stereo not shown) | 2.628 | 2.239 |
| 9 | `O=C1CC(NS(=O)(=O)NCc2ccccc2)CN1c1ccccc1Cl` (stereo not shown) | -24.18 | 0.3745 |
| 10 | `CC(O)CN1CCN(C(=O)c2ccc(N(C)C)nc2)CC1` (stereo not shown) | -17.9 | -19.34 |
| 11 | `c1ccc(O[C@H]2COCCN(CC3CC3)C2)cc1` | 25.49 | -5.558 |
| 12 | `CSCC[C@H](NC(=O)Cn1ccc2ccc(Cl)cc21)C(=O)O` | 29.81 | 13.91 |
| 13 | `CNS(=O)(=O)c1cccc(C(C)NCc2ccsc2)c1` (stereo not shown) | 7.271 | -2.958 |
| 14 | `O=C(Cc1ccccn1)N1CCC2(CC1)CN(CC1CC1)C(=O)CO2.O=C(O)C(F)(F)F` | 16.02 | -22 |
| 15 | `COCc1noc(-c2ccc(N3CCCCC3CCCO)nc2)n1` (stereo not shown) | - | 22.87 |
| 16 | `Cc1cc(C)n(CC(C)CNC(=O)N(C)Cc2cc(C)on2)n1` (stereo not shown) | - | 3.674 |
| 17 | `O=C(COCc1ccccc1Cl)Nc1ccnn1CC1CCOC1` (stereo not shown) | 6.648 | 16.48 |
| 18 | `O=C1CCOC[C@]2(CN(Cc3ccccc3)C[C@H]2c2cccc(F)c2)N1` | -2.503 | -17.74 |
| 19 | `COCC(=O)NCc1ccc(-c2ncncc2C(=O)N(C)C)cc1` | 50.66 | 3.515 |
| 20 | `CCCN(C(=O)c1cnccn1)c1nc2c(s1)CCc1c-2cnn1C` | 25.49 | -8.207 |
| 21 | `c1ccc(OCCN2CCc3c(ncn3C3CC3)C2)cc1` | -9.86 | -21.84 |
| 22 | `CC(C)c1ccc(C(N)c2cccs2)cc1` (stereo not shown) | 11.17 | 11.13 |
| 23 | `O=C(N[C@@H]1CNCCC[C@H]1O)c1ccc(OCCN2CCOCC2)cc1` | - | 0.4701 |
| 24 | `CCN(C1CCN(c2cccc(F)c2C(C)=O)CC1)S(C)(=O)=O` | -0.7446 | 12.12 |
| 25 | `Cc1cn(CC(=O)Nc2cc(C(C)(C)C)nn2C)cn1` | -2.324 | 19.78 |
| 26 | `C=C(C)CNCC1(O)CCCN(Cc2ccc(F)c(F)c2)C1=O` (stereo not shown) | 11.79 | 0.1697 |
| 27 | `CCC1c2ccsc2CCN1C(=O)NCc1ccnc(N(C)C)c1` (stereo not shown) | - | 14.38 |
| 28 | `Cc1ccc(CCNC(=O)Cn2nc(C)n(Cc3ccccc3)c2=O)s1` | -13.33 | -40.06 |
| 29 | `Cc1c(C(=O)N2CCCC(O)(CN(C)C)CC2)c2cc(O)ccc2n1C` (stereo not shown) | -47.64 | -17.64 |
| 30 | `Cc1noc(CCCC(=O)NC(C)c2cn(-c3ccccc3)nn2)n1` (stereo not shown) | - | 3.504 |
| 31 | `Cc1nc(C(C)NC(=O)c2cn(C/C=C/c3ccccc3)nn2)n[nH]1` (stereo not shown) | 19.62 | -13.32 |
| 32 | `[H][C@@]12CN(C(=O)N(C)C)C[C@]1([H])C(=O)N(C)C21CCN(C(C)=O)CC1` | - | -5.536 |
| 33 | `O=C(O)c1nnn(Cc2cccc(C(F)(F)F)c2)c1-c1ccncc1` | -22.55 | -17.3 |
| 34 | `CCCS(=O)(=O)N1CCC2(CCN(Cc3cccc(F)c3)C2=O)C1` (stereo not shown) | -40.05 | -39.83 |
| 35 | `CC1(C)CN=C(N2CCN(CC3CCOC3)CC2)S1` (stereo not shown) | 26.42 | -34.93 |
| 36 | `[H][C@@]12CCN(S(=O)(=O)c3cccc(C)c3)C[C@]1(C(=O)NC)CCO2` | 6.261 | 0.1293 |
| 37 | `CCOCCN1CCC(c2cnccn2)CC1` | -27.24 | -21.69 |
| 38 | `O=C(CCc1ccc(Cl)cc1)N1CCC(O)(C(F)(F)F)C1` (stereo not shown) | 11.39 | 18.09 |
| 39 | `CC(NCc1cnn(C)c1)c1ccc(OCc2nccn2C)cc1` (stereo not shown) | 3.543 | -34.04 |
| 40 | `Cc1n[nH]cc1CNC1CCN(c2cccc(C(F)(F)F)c2)CC1` | 19.18 | 13.53 |
| 41 | `CCCc1n[nH]c(C2CN(C(=O)c3ccc[nH]3)CCO2)n1` (stereo not shown) | -1.012 | -0.6528 |
| 42 | `CCCN(CCC)C1(Cc2cc(-c3cccc(O)c3)on2)COC1` | -4.383 | -16.77 |
| 43 | `O=C1CCOC[C@]2(CN(Cc3ccccc3)C[C@H]2c2cccnc2)N1` | -31.18 | -16.95 |
| 44 | `COCCN(Cc1cccc(OCCO)c1)Cc1ccccc1F` | 14.8 | -26.65 |
| 45 | `CN(C)C(=O)CN1CCCC12CCCN(c1ncc(F)cn1)C2.O=C(O)C(F)(F)F` (stereo not shown) | 21.93 | 5.331 |
| 46 | `O=C(Nc1ccccc1)c1ccc(NCc2ccccc2CO)nn1` | 16.95 | -18.03 |
| 47 | `O=C(O)C(F)(F)F.O=C(O)C(F)(F)F.[H][C@]12CC(=O)N(Cc3cccc(C)n3)[C@@]1([H])CCN2CC1CC1` | 16.97 | -32.39 |
| 48 | `Cc1nn(C)c(C)c1CC(=O)N1CCCN(c2cccnn2)CC1` | - | 4.587 |
| 49 | `CC(C)(CNc1ccc(C#N)c(C(F)(F)F)c1)C(N)=O` | - | -3.766 |
| 50 | `COCC(=O)N1CCCC(C(=O)c2cnn(-c3ccc(F)cc3)c2N)C1` (stereo not shown) | -21.76 | -3.34 |
| 51 | `NC(=O)C1CCN(C(=O)NCc2ccc3c(c2)OCCO3)CC1` | 23.98 | -0.7676 |
| 52 | `O=C(O)C(F)(F)F.[H][C@]12CCC[C@@]1(COCC(=O)N1CCCC1)CN(C1CCCC1)C2` | 14.5 | 4.306 |
| 53 | `Cc1ncc2c(n1)CCN(CCCc1nc3ccccc3o1)C2` | - | -14.53 |
| 54 | `CCN(C)c1ncnc2c1CCN(Cc1ccc(F)cc1)CC2.O=C(O)C(F)(F)F.O=C(O)C(F)(F)F` | - | 4.111 |
| 55 | `Cc1csc(C2CCCCN2C(=O)CN(C)C(C)C)n1` (stereo not shown) | - | -34.73 |
| 56 | `COC(=O)CN1CCC(C(=O)c2cc(F)ccc2F)CC1` | - | -0.9466 |
| 57 | `N#Cc1ccc(SCCC(=O)O)cc1` | - | -94.72 |
| 58 | `CS(=O)(=O)c1cncnc1C1CCCNC1.Cl` (stereo not shown) | -12.8 | -4.262 |
| 59 | `[H][C@]12CC[C@@]3(N=C(C)N(CCOC)C3=O)[C@@]1([H])CN(S(=O)(=O)CC(C)C)C2` | -20.77 | -9.857 |

Once more, the final 5:

| compound | Mtb growth Cornell | Mtb heat-shock |
|---|---|---|
| `Cc1csc(C2CCCCN2C(=O)CN(C)C(C)C)n1` (stereo not shown) | - | -34.73 |
| `COC(=O)CN1CCC(C(=O)c2cc(F)ccc2F)CC1` | - | -0.9466 |
| `N#Cc1ccc(SCCC(=O)O)cc1` | - | -94.72 |
| `CS(=O)(=O)c1cncnc1C1CCCNC1.Cl` (stereo not shown) | -12.8 | -4.262 |
| `[H][C@]12CC[C@@]3(N=C(C)N(CCOC)C3=O)[C@@]1([H])CN(S(=O)(=O)CC(C)C)C2` | -20.77 | -9.857 |